{"source": "PubChem BioAssay AID1259405 (NCATS, 2018)", "test": "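Mouse-designed siRNAs used to find CHO productivity engineering targets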 (primary screen)", "cell system": "Chinese hamster CHO-K1 ovary cells with stable secreted eGFP expression", "reagent": "single siRNA against mouse genes, 0.8 pmol siRNA per well (2 µl of 400 nM stock)", "duration": "3 days", "measured": "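Per-well intracellular GFP measured by laser scanning cytometry, plus viability from ATP luminescence, each relative to plate median of non-targeting control wells, in %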", "reading the numbers": "GFP, % of control: higher = more GFP per well, higher productivity; viability (ATP), % of control: higher = more viable cells (more ATP)", "hit rule": "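a knock-down is called active if GFP reaches 120% or more of non-targeting control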", "note": "The deposit covers about 50,000 reagents; this is a random part of them. About 4,000 of them (8%) count as active. 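Mouse siRNA library applied to hamster cells; one well for each siRNA.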 Unmarked entries are inactive. The numbers tell different reagents against one gene apart. No sequences are given here."}
{"gene": "Cts3", "siRNA no.": 1, "GFP, % of control": 77.5, "viability (ATP), % of control": 33.6}
{"gene": "Cts3", "siRNA no.": 2, "GFP, % of control": 48.4, "viability (ATP), % of control": 63.4}
{"gene": "Cts3", "siRNA no.": 3, "GFP, % of control": 85.1, "viability (ATP), % of control": 86}
{"gene": "Krt25", "siRNA no.": 1, "GFP, % of control": 59.8, "viability (ATP), % of control": 68.8}
{"gene": "Krt25", "siRNA no.": 2, "GFP, % of control": 62.8, "viability (ATP), % of control": 92.9}
{"gene": "Krt25", "siRNA no.": 3, "GFP, % of control": 23.8, "viability (ATP), % of control": 26.6}
{"gene": "Hycc1", "siRNA no.": 1, "GFP, % of control": 95.6, "viability (ATP), % of control": 75}
{"gene": "Hycc1", "siRNA no.": 2, "GFP, % of control": 83.8, "viability (ATP), % of control": 88.8}
{"gene": "Hycc1", "siRNA no.": 3, "GFP, % of control": "126 (active)", "viability (ATP), % of control": 93}
{"gene": "Myc", "siRNA no.": 1, "GFP, % of control": 113, "viability (ATP), % of control": 101}
{"gene": "Myc", "siRNA no.": 2, "GFP, % of control": 85.6, "viability (ATP), % of control": 56.8}
{"gene": "Myc", "siRNA no.": 3, "GFP, % of control": 95.4, "viability (ATP), % of control": 78}
{"gene": "Abcg3", "siRNA no.": 1, "GFP, % of control": "125 (active)", "viability (ATP), % of control": 72.4}
{"gene": "Abcg3", "siRNA no.": 2, "GFP, % of control": 77.1, "viability (ATP), % of control": 82.7}
{"gene": "Abcg3", "siRNA no.": 3, "GFP, % of control": 75.9, "viability (ATP), % of control": 88.4}
{"gene": "Or14j4", "siRNA no.": 1, "GFP, % of control": 83.2, "viability (ATP), % of control": 63.2}
{"gene": "Or14j4", "siRNA no.": 2, "GFP, % of control": 62.2, "viability (ATP), % of control": 64.6}
{"gene": "Or14j4", "siRNA no.": 3, "GFP, % of control": 68.4, "viability (ATP), % of control": 84.2}
{"gene": "Baz1a", "siRNA no.": 1, "GFP, % of control": 90.5, "viability (ATP), % of control": 66.7}
{"gene": "Baz1a", "siRNA no.": 2, "GFP, % of control": 61.7, "viability (ATP), % of control": 88.4}
{"gene": "Baz1a", "siRNA no.": 3, "GFP, % of control": 68.7, "viability (ATP), % of control": 79.3}
{"gene": "Krtap13-20", "siRNA no.": 1, "GFP, % of control": 65.5, "viability (ATP), % of control": 66.3}
{"gene": "Krtap13-20", "siRNA no.": 2, "GFP, % of control": 83.2, "viability (ATP), % of control": 57}
{"gene": "Krtap13-20", "siRNA no.": 3, "GFP, % of control": 67.9, "viability (ATP), % of control": 88.1}
{"gene": "Acox1", "siRNA no.": 1, "GFP, % of control": 85.9, "viability (ATP), % of control": 66.7}
{"gene": "Acox1", "siRNA no.": 2, "GFP, % of control": 99.6, "viability (ATP), % of control": 95}
{"gene": "Acox1", "siRNA no.": 3, "GFP, % of control": 70.6, "viability (ATP), % of control": 64.8}
{"gene": "Kpna6", "siRNA no.": 1, "GFP, % of control": 50.3, "viability (ATP), % of control": 45.5}
{"gene": "Kpna6", "siRNA no.": 2, "GFP, % of control": 73.5, "viability (ATP), % of control": 59.4}
{"gene": "Kpna6", "siRNA no.": 3, "GFP, % of control": 95.4, "viability (ATP), % of control": 66.9}
{"gene": "Cbfb", "siRNA no.": 1, "GFP, % of control": 7.51, "viability (ATP), % of control": 5.13}
{"gene": "Cbfb", "siRNA no.": 2, "GFP, % of control": 48.2, "viability (ATP), % of control": 48.1}
{"gene": "Cbfb", "siRNA no.": 3, "GFP, % of control": 96.2, "viability (ATP), % of control": 113}
{"gene": "Zik1", "siRNA no.": 1, "GFP, % of control": 47.4, "viability (ATP), % of control": 73.9}
{"gene": "Zik1", "siRNA no.": 2, "GFP, % of control": 61.9, "viability (ATP), % of control": 85.7}
{"gene": "Zik1", "siRNA no.": 3, "GFP, % of control": 50.7, "viability (ATP), % of control": 77.8}
{"gene": "Oplah", "siRNA no.": 1, "GFP, % of control": "123 (active)", "viability (ATP), % of control": 127}
{"gene": "Oplah", "siRNA no.": 2, "GFP, % of control": 86.6, "viability (ATP), % of control": 64.2}
{"gene": "Oplah", "siRNA no.": 3, "GFP, % of control": 101, "viability (ATP), % of control": 74.7}
{"gene": "Ptdss2", "siRNA no.": 1, "GFP, % of control": 110, "viability (ATP), % of control": 125}
{"gene": "Ptdss2", "siRNA no.": 2, "GFP, % of control": 68.5, "viability (ATP), % of control": 108}
{"gene": "Ptdss2", "siRNA no.": 3, "GFP, % of control": 99.8, "viability (ATP), % of control": 84.5}
{"gene": "Jdp2", "siRNA no.": 1, "GFP, % of control": 104, "viability (ATP), % of control": 85.9}
{"gene": "Jdp2", "siRNA no.": 2, "GFP, % of control": 66.4, "viability (ATP), % of control": 61.4}
{"gene": "Jdp2", "siRNA no.": 3, "GFP, % of control": 109, "viability (ATP), % of control": 99.5}
{"gene": "Rpl17", "siRNA no.": 1, "GFP, % of control": 43, "viability (ATP), % of control": 38.3}
{"gene": "Rpl17", "siRNA no.": 2, "GFP, % of control": 62.6, "viability (ATP), % of control": 60.3}
{"gene": "Rpl17", "siRNA no.": 3, "GFP, % of control": 36.1, "viability (ATP), % of control": 47.2}
{"gene": "Ak8", "siRNA no.": 1, "GFP, % of control": "184 (active)", "viability (ATP), % of control": 128}
{"gene": "Ak8", "siRNA no.": 2, "GFP, % of control": "120 (active)", "viability (ATP), % of control": 105}
{"gene": "Ak8", "siRNA no.": 3, "GFP, % of control": 90.8, "viability (ATP), % of control": 83.2}
{"gene": "Kdm5a", "siRNA no.": 1, "GFP, % of control": 96, "viability (ATP), % of control": 104}
{"gene": "Kdm5a", "siRNA no.": 2, "GFP, % of control": 34.6, "viability (ATP), % of control": 58.7}
{"gene": "Kdm5a", "siRNA no.": 3, "GFP, % of control": 108, "viability (ATP), % of control": 80.3}

Copied from the listing for reference:
{"gene": "Kpna6", "siRNA no.": 2, "GFP, % of control": 73.5, "viability (ATP), % of control": 59.4}
{"gene": "Kpna6", "siRNA no.": 3, "GFP, % of control": 95.4, "viability (ATP), % of control": 66.9}
{"gene": "Cbfb", "siRNA no.": 1, "GFP, % of control": 7.51, "viability (ATP), % of control": 5.13}
{"gene": "Cbfb", "siRNA no.": 2, "GFP, % of control": 48.2, "viability (ATP), % of control": 48.1}
{"gene": "Cbfb", "siRNA no.": 3, "GFP, % of control": 96.2, "viability (ATP), % of control": 113}
{"gene": "Zik1", "siRNA no.": 1, "GFP, % of control": 47.4, "viability (ATP), % of control": 73.9}
{"gene": "Zik1", "siRNA no.": 2, "GFP, % of control": 61.9, "viability (ATP), % of control": 85.7}
